Laboratory results reported in patent US5576429A, “5-substituted pyrimidine nucleosides and nucleotides” (Medivir AB, priority 1988, dated 1996).
At least one structure is not confirmed: it was looked up by name or label, or the drawing left a doubt.

Test system: HIV (HTLV-IIIB)
Assay: Test I Effect of compounds on HIV in H9 cells (frequency of HIV antigen containing cells)
Assay type: cell-based
Conditions: 6-7 days
Experimental: Test I Effect of compounds of the formula I on HIV in H9 cells
Materials and methods: HIV infection of H9 cells
H9 cells, 10^5 cells per well on a 24 well plate, suspended in 2 ml RPMI-medium containing 10% fetal calf serum, 100 μg/ml pencillin, 10 μg/ml streptomycin sulfate and 2 μg/ml polybrene are exposed to HIV (HTLV-IIIB) and different concentrations of the test compounds. The plates are incubated at 37° C. in 5% CO2 for 6-7 days. The contents in each well is then homogenized with a pipette and transferred to a centrifuge tube. After centrifugation for 10 min at 1500 rpm the supernatant is removed and the cell pellet is analyzed by fixing in methanol on glass plates. Human HIV positive serum diluted 1:80 or 1:160 is added and incubated for 30 min at 37° C. The plate is then washed with phosphate-buffered saline (PBS) containing Ca^2+ and Mg^2 +. Sheep antihuman conjugate (FITC) is added and after a new incubation the plate is again washed with PBS. Contrast staining is done with Evans blue and after drying the frequency of HIV antigen containing cells is determined in a microscope.

## O=c1[nH]c(=O)n([C@H]2C[C@H](O)[C@@H](CO)O2)cc1-c1cccs1 [VSA 189]
  Concentration for 50% inhibition (IC50) of human immuno deficiency virus multiplication in cell culture: 10->10
